The other results are listed elsewhere or left out. Single values are uncertain, as repeats are few or missing.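 Cells were imaged in 1,536-well plates, and nuclei stained with an antibody against cleaved PARP were counted against all DNA-stained nuclei to give the apoptosis fraction. Screening doses were chosen to leave most cells alive, and resting and induced cleaved-PARP levels differ strongly between cell lines.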

In the assay the test system is SkMel5. The assay is described as follows: cleaved PARP positive nuclei fraction relative to DMSO control; melanoma cells; higher = more apoptosis. As to conditions: library dose: low library concentration; 72 h.
In the case of `C=C(c1ccc(C(=O)O)cc1)c1cc2c(cc1C)C(C)(C)CCC2(C)C` [Bexarotene] + O=C(Oc1ccc([N+](=O)[O-])cc1)N1CCC(C(O)(c2ccc3c(c2)OCO3)c2ccc3c(c2)OCO3)CC1 [JZL184] (first compound 2 µM, partner dose 1 µM), the “cleaved PARP positive nuclei fraction” value was determined as 77.3%.

Take `Cn1sc(=O)n(Cc2ccccc2)c1=O` + O=C(Oc1ccc([N+](=O)[O-])cc1)N1CCC(C(O)(c2ccc3c(c2)OCO3)c2ccc3c(c2)OCO3)CC1 [JZL184] (first compound 0.4 µM, partner dose 1 µM): the “cleaved PARP positive nuclei fraction” value is 224%.

As for `C[As](C)SC[C@H](NC(=O)CC[C@H](N)C(=O)O)C(=O)NCC(=O)O` [Darinaparsin] + COc1cc(Nc2ncc(F)c(Nc3ccc4c(n3)NC(=O)C(C)(C)O4)n2)cc(OC)c1OC [Tamatinib] (first compound 0.4 µM, partner dose 0.4 µM), the “cleaved PARP positive nuclei fraction” value was found to be 49.2%.

On to `CNC(=O)c1cc(Oc2ccc(NC(=O)Nc3ccc(Cl)c(C(F)(F)F)c3)cc2)ccn1` [sorafenib] + Cc1cc(SCc2sc(-c3ccc(C(F)(F)F)c(F)c3)nc2C)ccc1OCC(=O)O [GW0742] (first compound 0.4 µM, partner dose 2 µM), for which the “cleaved PARP positive nuclei fraction” value came out at 67.7%.

Consider `Cn1cc(C2=C(c3cn(C4CCN(Cc5ccccn5)CC4)c4ccccc34)C(=O)NC2=O)c2ccccc21` [Enzastaurin] + COC(=O)c1sccc1S(=O)(=O)Nc1ccc(Nc2ccccc2)cc1OC [GSK0660] (first compound 0.8 µM, partner dose 1 µM), for which the “cleaved PARP positive nuclei fraction” value amounted to 77.6%.

The values above are taken from the supplement of paper PMC4604168 (melanoma cell lines).
